# Reference: PubChem BioAssay AID256 (DTP/NCI, 2004)
# The list is a part of this screen's results and no random one: it gathers tests that were run many times, whatever their T/C, doses with no T/C, and many T/C values between a quarter and a half above the control. Other doses and runs of a compound stand elsewhere. T/C gives the treated animals as a percentage of the vehicle group. Some entries give survivors of the animals treated and no T/C: the source files T/C as zero there, which appears to mark a toxic dose or a test without result, not a measured value. Some doses without a T/C left all or most animals alive at the check, yet need not have been tolerated: the source hardly ever lists a survival T/C far under the control, and the zero likely stands for such cases as well. Counts of survivors are from the toxicity check (mostly the fifth day) where no day follows; animals may have died later. Schedules are NCI's codes, taken here to give the interval after Q, in days (D) or hours (H), and the number of doses after X. Some doses were run more than once; the results are listed from low to high. Where survival is the endpoint, this PubChem deposit counts one and a half times the control or more as active, and values a quarter to a half above the control carry no call in these data; other NCI protocols may use other cut-offs.
# Test system: CD2F1 mice, L1210 leukemia ip, survival T/C
# Assay: NCI In Vivo Anticancer Drug Screen. Data for tumor model L1210 Leukemia (intraperitoneal) in CD2F1 (CDF1) mice
# Details: higher T/C = longer survival
# In short: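 Read-out first: treated-group measurement over vehicle-control measurement, expressed as a ratio. Animals bore a transplanted tumor line and were dosed with compound or vehicle.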
# [1] = T/C endpoint: mean survival time, dose: 200.0 mg/kg/injection, schedule: Q04DX003 (ip), vehicle: saline
# [2] = T/C endpoint: mean survival time, dose: 200.0 mg/kg/injection, schedule: Q04DX002 (ip), vehicle: saline with Tween-80
# [3] = T/C endpoint: mean survival time, dose: 400.0 mg/kg/injection, schedule: Q04DX002 (ip), vehicle: saline with Tween-80
# [4] = T/C endpoint: median survival time, dose: 200.0 mg/kg/injection, schedule: Q01DX009 (ip), vehicle: Klucel (hydroxypropylcellulose) (HPC)
# [5] = T/C endpoint: mean survival time, dose: 400.0 mg/kg/injection, schedule: Q01DX001 (ip), vehicle: saline
structure (smiles),measurement,setting,value
O=C(O)CCC1NCCCO1 (stereo not given),survivor count,[1],6 of 6
CCN(CC)CCCNc1nccc2c(C)c3[nH]c4ccncc4c3cc12,T/C,"T/C endpoint: mean survival time, dose: 1.25 mg/kg/injection, schedule: Q01DX001 (ip), vehicle: water",129 % of control
same,T/C,"T/C endpoint: mean survival time, dose: 2.5 mg/kg/injection, schedule: Q01DX001 (ip), vehicle: water",126 % of control
same,T/C,"T/C endpoint: mean survival time, dose: 5.0 mg/kg/injection, schedule: Q01DX001 (ip), vehicle: water",135 % of control
same,T/C,"T/C endpoint: mean survival time, dose: 10.0 mg/kg/injection, schedule: Q01DX001 (ip), vehicle: water",128 % of control
same,T/C,"T/C endpoint: mean survival time, dose: 20.0 mg/kg/injection, schedule: Q01DX001 (ip), vehicle: water",142 % of control
same,survivor count,"T/C endpoint: mean survival time, dose: 40.0 mg/kg/injection, schedule: Q01DX001 (ip), vehicle: water",3 of 6
same,T/C,"T/C endpoint: median survival time, dose: 1.25 mg/kg/injection, schedule: Q01DX009 (ip), vehicle: acid diluted with saline",133 % of control
same,T/C,"T/C endpoint: median survival time, dose: 2.5 mg/kg/injection, schedule: Q01DX001 (ip), vehicle: other",129 % of control
same,T/C,"T/C endpoint: median survival time, dose: 2.5 mg/kg/injection, schedule: Q01DX009 (ip), vehicle: acid diluted with saline",125 % of control
same,T/C,"T/C endpoint: median survival time, dose: 5.0 mg/kg/injection, schedule: Q01DX009 (ip), vehicle: acid diluted with saline",136 % of control
same,survivor count,"T/C endpoint: median survival time, dose: 10.0 mg/kg/injection, schedule: Q01DX009 (ip), vehicle: acid diluted with saline",9 of 10
same,survivor count,"T/C endpoint: median survival time, dose: 20.0 mg/kg/injection, schedule: Q01DX009 (ip), vehicle: acid diluted with saline",2 of 10
same,survivor count,"T/C endpoint: median survival time, dose: 40.0 mg/kg/injection, schedule: Q01DX001 (ip), vehicle: other",0 of 6
same,survivor count,"T/C endpoint: median survival time, dose: 40.0 mg/kg/injection, schedule: Q01DX009 (ip), vehicle: acid diluted with saline",0 of 10
COc1ccc(C2=NNC(=O)CC2)cc1OC,survivor count,"T/C endpoint: mean survival time, dose: 100.0 mg/kg/injection, schedule: Q04DX003 (ip), vehicle: saline",1 of 3
same,survivor count,[1],0 of 3
same,survivor count,"T/C endpoint: mean survival time, dose: 400.0 mg/kg/injection, schedule: Q04DX003 (ip), vehicle: saline",0 of 3
COC(=O)NC1C(C)OC(OC2C/C=C(/C)C3C=CC4C(OC5CC(OC6CC(OC7CC(O)C(O)C(C)O7)C(OC7CC(O)C(OC)C(C)O7)C(C)O6)C(O)C(C)O5)C(C)CC(C)C4C3(C)/C(O)=C3\C(=O)OC4(CC(C)C(CO)=CC4/C=C\2C)C3=O)CC1(C)[N+](=O)[O-] (stereo not given),survivor count,"T/C endpoint: median survival time, dose: 100.0 mg/kg/injection, schedule: Q01DX009 (ip), vehicle: water",5 of 5
same,survivor count,"T/C endpoint: median survival time, dose: 200.0 mg/kg/injection, schedule: Q01DX009 (ip), vehicle: water",0 of 6
CC1CCC2NCCCC2C1 (stereo not given),survivor count,"T/C endpoint: mean survival time, dose: 100.0 mg/kg/injection, schedule: Q04DX002 (ip), vehicle: saline with Tween-80",0 of 3
same,survivor count,[2],0 of 3
same,survivor count,[3],0 of 3
Cc1ccc(NCCN(C)C)c2c(=O)c3cc(O)ccc3sc12,T/C,"T/C endpoint: median survival time, dose: 12.5 mg/kg/injection, schedule: Q01DX009 (ip), vehicle: Klucel (hydroxypropylcellulose) (HPC)","116, 121, 133, 137 % of control"
same,T/C,"T/C endpoint: median survival time, dose: 25.0 mg/kg/injection, schedule: Q01DX009 (ip), vehicle: Klucel (hydroxypropylcellulose) (HPC)","131, 133, 164, 179 % of control"
same,T/C,"T/C endpoint: median survival time, dose: 50.0 mg/kg/injection, schedule: Q01DX009 (ip), vehicle: Klucel (hydroxypropylcellulose) (HPC)","162, 166, 207, 222 % of control"
same,T/C,"T/C endpoint: median survival time, dose: 100.0 mg/kg/injection, schedule: Q01DX009 (ip), vehicle: Klucel (hydroxypropylcellulose) (HPC)","98, 121, 150, 225 % of control"
same,T/C,[4],133 % of control
same,survivor count,[4],"3 of 6, 4 of 6, 5 of 6"
Nc1ncc(CCS)c(=O)[nH]1,survivor count,[5],0 of 6
Clc1cc(CBr)c2ccccc2n1,survivor count,[2],1 of 3
same,survivor count,[3],0 of 3
O=Cc1cccc2ccc3ccccc3c12,survivor count,"T/C endpoint: median survival time, dose: 400.0 mg/kg/injection, schedule: Q04DX002 (ip), vehicle: saline with Tween-80",0 of 3
CCOC(=O)/C=C/SCC(N)C(=O)OCC (stereo not given),survivor count,"T/C endpoint: mean survival time, dose: 200.0 mg/kg/injection, schedule: Q01DX001 (ip), vehicle: saline",2 of 6
same,survivor count,[5],2 of 6
